This passage reports binding results from article PMC6748134.

These are yes or no findings as the source states them, for the method shown. Binding seen in cells or lysates may run through a third protein. Binding can be weak; no strength is given.

For the assay, the target named is T1, Bicaudal D homolog 1 (human (endogenous in UCB-MSCs)) (UniProt Q96G01).
T1 sequence: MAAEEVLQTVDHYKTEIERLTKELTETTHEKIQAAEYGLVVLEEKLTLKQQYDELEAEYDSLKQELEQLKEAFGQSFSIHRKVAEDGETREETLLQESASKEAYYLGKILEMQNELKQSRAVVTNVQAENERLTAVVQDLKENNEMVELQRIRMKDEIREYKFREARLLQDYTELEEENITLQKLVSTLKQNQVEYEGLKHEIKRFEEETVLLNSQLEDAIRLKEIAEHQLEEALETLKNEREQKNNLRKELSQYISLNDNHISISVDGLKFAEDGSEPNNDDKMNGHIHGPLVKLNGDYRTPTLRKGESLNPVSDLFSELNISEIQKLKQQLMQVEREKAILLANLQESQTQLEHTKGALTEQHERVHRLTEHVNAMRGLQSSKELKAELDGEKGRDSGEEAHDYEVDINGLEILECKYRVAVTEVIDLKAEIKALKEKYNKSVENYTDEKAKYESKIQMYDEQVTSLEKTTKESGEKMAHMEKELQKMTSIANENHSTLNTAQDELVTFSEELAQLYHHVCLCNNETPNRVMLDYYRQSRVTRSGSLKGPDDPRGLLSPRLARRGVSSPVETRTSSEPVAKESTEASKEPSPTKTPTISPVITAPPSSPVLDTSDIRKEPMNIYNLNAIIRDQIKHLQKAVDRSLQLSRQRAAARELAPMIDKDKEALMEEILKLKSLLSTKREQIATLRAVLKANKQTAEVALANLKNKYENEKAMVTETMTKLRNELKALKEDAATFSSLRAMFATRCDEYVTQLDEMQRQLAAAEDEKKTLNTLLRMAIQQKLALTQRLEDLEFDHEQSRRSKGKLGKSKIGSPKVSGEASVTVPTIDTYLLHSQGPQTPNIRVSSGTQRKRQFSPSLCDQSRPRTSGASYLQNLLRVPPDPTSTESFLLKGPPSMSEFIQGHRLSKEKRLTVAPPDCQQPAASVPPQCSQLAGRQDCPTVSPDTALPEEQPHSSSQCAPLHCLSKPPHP
Description: co-IP; UCB-MSC lysates (20 mM Tris-HCl pH 8.0, 137 mM NaCl, 1% Nonidet P-40, 2 mM EDTA); primary antibody on Protein G magnetic beads, 6 h at 4 C; western blot; cells under normoxia or hypoxia 24 h, in some panels with MG132, wortmannin, ciliobrevin D, CoCl2 or NT siRNA.

As to Akt (human (endogenous in UCB-MSCs)), the binding result is listed as “binds”. For “α-Tubulin (human (endogenous in UCB-MSCs))”, the binding entry is given as “binds”.
